Laboratory results as given in patent publication CN111690063A.
Results are given in words; binding and its absence hold for the method and conditions named. Some results given as binding are weak or reduced against the parent protein; the word gives no strength.

The chains behind the UniProt entries cited, without tags or fusion partners. Residues count along the entry.
UniProt P04141, residues 18-144: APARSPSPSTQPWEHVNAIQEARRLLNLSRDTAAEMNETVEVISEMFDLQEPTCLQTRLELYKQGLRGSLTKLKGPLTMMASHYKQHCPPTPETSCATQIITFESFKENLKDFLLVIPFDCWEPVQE

How the values were obtained:
[1] = molecular target: 粒细胞-巨噬细胞集落刺激因子 (human granulocyte-macrophage colony-stimulating factor, GM-CSF) (human) (UniProt P04141); assay: Indirect phage ELISA: GM-CSF coated at 10 μg/mL, phage-displayed nanobody clones, HRP anti-M13 detection
[2] = molecular target: 粒细胞-巨噬细胞集落刺激因子 (human granulocyte-macrophage colony-stimulating factor, GM-CSF) (human) (UniProt P04141); assay: Biolayer interferometry type assay: GM-CSF loaded on SA sensor

binding [1]: binds
binding [2]: binds
B1: 抗GM-CSF纳米抗体G1 (VHH)
VHH: QLQLVESGGGLVQAGGSLRLSCAVSGRPSNVYDMGWFRRVPGKESRLMAYINWSRGSTYYADSVKGRFTISRDNTNNTVYLQMNSLKPEDTAVYYCAARAGPGTPAYNSWGQGTQVTVSS
